Assay results reported in PubChem BioAssay AID330 (DTP/NCI, 2004).
The list does not hold the whole screen: it gathers tests that were run many times, whatever their T/C, doses with no T/C, and many T/C values between a quarter and a half above the control. Further doses and runs are listed elsewhere. T/C gives the treated animals as a percentage of the vehicle group. Some entries give survivors of the animals treated and no T/C: the source holds a T/C of zero for them, seemingly a mark for toxic or unscored doses. Some survivor counts are full or nearly so, which does not show that the dose was tolerated: the source hardly ever lists a survival T/C far under the control, and the zero likely stands for such cases as well. Counts of survivors are from the toxicity check (mostly the fifth day) where no day follows; animals may have died later. Schedules are NCI's codes, taken here to give the interval after Q, in days (D) or hours (H), and the number of doses after X. Some entries were tested several times; the values are given in rising order. For survival time, the PubChem record calls one and a half times the control and up active, and a quarter to a half above the control has no call in these data; cut-offs in other NCI protocols can differ. Some T/C values are followed by the survivors on the day toxicity was checked, most often the fifth; where none is given, no animal had died by that day.

Tested on: P388 leukemia ip, CD2F1 mice, survival T/C
Assay: NCI In Vivo Anticancer Drug Screen. Data for tumor model P388 Leukemia (intraperitoneal) in CD2F1 (CDF1) mice
Conditions: T/C endpoint: median survival time, higher T/C = longer survival
[1] = dose: 100.0 mg/kg/injection, schedule: Q01DX009 (ip), vehicle: water
[2] = dose: 25.0 mg/kg/injection, schedule: Q04DX003 (ip), vehicle: other
[3] = dose: 60.0 mg/kg/injection, schedule: Q01DX005 (ip), vehicle: saline with Tween-80
[4] = dose: 120.0 mg/kg/injection, schedule: Q01DX005 (ip), vehicle: saline with Tween-80
[5] = dose: 240.0 mg/kg/injection, schedule: Q01DX005 (ip), vehicle: saline with Tween-80
[6] = dose: 12.5 mg/kg/injection, schedule: Q01DX009 (ip), vehicle: saline with Tween-80
[7] = dose: 100.0 mg/kg/injection, schedule: Q04DX003 (ip), vehicle: saline with Tween-80
[8] = dose: 12.5 mg/kg/injection, schedule: Q01DX009 (ip), vehicle: saline
[9] = dose: 100.0 mg/kg/injection, schedule: Q01DX009 (ip), vehicle: saline
[10] = dose: 200.0 mg/kg/injection, schedule: Q01DX009 (ip), vehicle: saline
[11] = dose: 50.0 mg/kg/injection, schedule: Q01DX009 (ip), vehicle: saline
[12] = dose: 6.25 mg/kg/injection, schedule: Q01DX009 (ip), vehicle: saline

COc1cccc2c1C(=O)c1c(O)c3c(c(O)c1C2=O)C[C@@](O)(C(=O)CO)C[C@@H]3OC1CC([N+](C)(C)C)C(O)C(C)O1 (stereo partly drawn)
T/C (dose: 5.56 mg/kg/injection, schedule: Q01DX009 (ip), vehicle: water): 131 % of control | T/C (dose: 6.25 mg/kg/injection, schedule: Q01DX009 (ip), vehicle: water): 142 % of control | T/C (dose: 8.3 mg/kg/injection, schedule: Q01DX009 (ip), vehicle: water): 144 % of control | T/C (dose: 10.8 mg/kg/injection, schedule: Q04DX003 (ip), vehicle: water): 131 % of control | T/C (dose: 18.0 mg/kg/injection, schedule: Q04DX003 (ip), vehicle: water): 126 % of control | survivor count (dose: 18.8 mg/kg/injection, schedule: Q01DX009 (ip), vehicle: water): 4 of 6 | T/C (dose: 25.0 mg/kg/injection, schedule: Q01DX001 (ip), vehicle: water): 131 % of control | survivor count (dose: 25.0 mg/kg/injection, schedule: Q01DX009 (ip), vehicle: water): 5 of 6 | survivor count (dose: 50.0 mg/kg/injection, schedule: Q01DX001 (ip), vehicle: water): 3 of 6 | survivor count (dose: 50.0 mg/kg/injection, schedule: Q01DX009 (ip), vehicle: water): 0 of 6 | survivor count (dose: 100.0 mg/kg/injection, schedule: Q01DX001 (ip), vehicle: water): 0 of 6 | survivor count [1]: 0 of 6 | survivor count (dose: 200.0 mg/kg/injection, schedule: Q01DX001 (ip), vehicle: water): 0 of 6 | survivor count (dose: 400.0 mg/kg/injection, schedule: Q01DX001 (ip), vehicle: water): 0 of 6

Nc1cc2c(c[n+](CCCBr)c3ccccc23)c2ccccc12
T/C (dose: 3.13 mg/kg/injection, schedule: Q04DX003 (ip), vehicle: other): 128 % of control | T/C (dose: 6.25 mg/kg/injection, schedule: Q04DX003 (ip), vehicle: other): 142 % of control | T/C (dose: 12.5 mg/kg/injection, schedule: Q04DX003 (ip), vehicle: other): 127 and 140 % of control [4 of 6 alive] | T/C [2]: 137 % of control [5 of 6 alive] | survivor count [2]: 0 of 6 | survivor count (dose: 50.0 mg/kg/injection, schedule: Q04DX003 (ip), vehicle: other): 1 of 6 | survivor count (dose: 100.0 mg/kg/injection, schedule: Q04DX003 (ip), vehicle: other): 0 of 6

C=C1C(=O)OC2C=CCCC12 (stereo not drawn)
survivor count (dose: 200.0 mg/kg/injection, schedule: Q01DX009 (ip), vehicle: water): 5 of 6

COc1cc(OC)c(/C=N/NC(=S)NC23CC4CC(CC(C4)C2)C3)c(OC)c1
survivor count [3]: 6 of 6 | survivor count [4]: 6 of 6

Cc1cccc(/C=N/Nc2cc(C)c3ccccc3n2)n1
survivor count (dose: 100.0 mg/kg/injection, schedule: Q01DX005 (ip), vehicle: saline with Tween-80): 2 of 6 | survivor count (dose: 200.0 mg/kg/injection, schedule: Q01DX005 (ip), vehicle: saline with Tween-80): 3 of 6

O=C(CCCc1ccc(N(CCCl)CCCl)cc1)NCC(O)C(O)C(O)C(O)CO (stereo not drawn)
survivor count (dose: 90.0 mg/kg/injection, schedule: Q01DX005 (ip), vehicle: saline with Tween-80): 4 of 6 | survivor count [4]: 2 of 6 | survivor count [5]: 0 of 6

CNCC(OC)c1ccc(O)c(O)c1 (stereo not drawn)
survivor count (dose: 400.0 mg/kg/injection, schedule: Q01DX009 (ip), vehicle: saline): 1 of 6 | survivor count (dose: 600.0 mg/kg/injection, schedule: Q01DX009 (ip), vehicle: saline): 0 of 6

O=C(Nc1ccc(C2=NCCCN2)cc1)Nc1cccc(C(=O)Nc2ccc(C3=NCCCN3)cc2)c1
T/C (dose: 6.0 mg/kg/injection, schedule: Q01DX009 (ip), vehicle: saline with Tween-80): 131 % of control | T/C [6]: 140 % of control | survivor count (dose: 37.5 mg/kg/injection, schedule: Q01DX009 (ip), vehicle: saline with Tween-80): 6 of 6 | survivor count [7]: 3 of 6 | survivor count (dose: 200.0 mg/kg/injection, schedule: Q04DX003 (ip), vehicle: saline with Tween-80): 1 of 6 | survivor count (dose: 400.0 mg/kg/injection, schedule: Q04DX003 (ip), vehicle: saline with Tween-80): 0 of 6

O=C(OCC12OC1C(=O)C1OC1C2O)c1ccccc1 (stereo not drawn)
survivor count (dose: 37.5 mg/kg/injection, schedule: Q04DX002 (ip), vehicle: saline with Tween-80): 0 of 6 | survivor count (dose: 75.0 mg/kg/injection, schedule: Q04DX002 (ip), vehicle: saline with Tween-80): 0 of 6 | survivor count (dose: 150.0 mg/kg/injection, schedule: Q04DX002 (ip), vehicle: saline with Tween-80): 0 of 6

CN(C)CC(CN1CCCC1)C(=O)c1ccccc1 (stereo not drawn)
T/C [8]: 127 and 131 % of control | survivor count [9]: 0 of 6 | survivor count [10]: 0 of 6

O=C1C=C(O)C2CCCCC2N1 (stereo not drawn)
survivor count (dose: 200.0 mg/kg/injection, schedule: Q01DX005 (ip), vehicle: Klucel (hydroxypropylcellulose) (HPC)): 0 of 6

C[N+](C)(C[Si](C)(C)C)C1CCCCCCCCCCC1
survivor count (dose: 30.0 mg/kg/injection, schedule: Q01DX005 (ip), vehicle: saline with Tween-80): 0 of 6 | survivor count [3]: 0 of 6 | survivor count [4]: 0 of 6 | survivor count [5]: 0 of 6

CN=C(NC(C)C)c1ccccc1
survivor count [9]: 4 of 6 | survivor count [10]: 0 of 6

CC(C)=CCC(C)/C(=N\[N+](C)(C)C)c1ccccc1 (stereo not drawn)
survivor count [8]: 0 of 6 | survivor count [11]: 0 of 6

O=C1CCCC1C(=S)S (stereo not drawn)
survivor count (dose: 400.0 mg/kg/injection, schedule: Q04DX003 (ip), vehicle: saline): 4 of 6

COc1cc(CC2c3cc(OC)c(OC)cc3CCN2C)c(Oc2cc3c(cc2OC)-c2c(O)c(OC)cc4c2C(C3)N(C)CC4)cc1OC (stereo not drawn)
survivor count (dose: 50.0 mg/kg/injection, schedule: Q04DX003 (ip), vehicle: saline with Tween-80): 6 of 6 | survivor count [7]: 6 of 6

C=COCC(C)C (tested in a mixture with another compound)
survivor count (dose: 6.25 mg/kg/injection, schedule: Q01DX009 (ip), vehicle: saline with Tween-80): 3 of 6 | survivor count [6]: 0 of 6 | survivor count (dose: 25.0 mg/kg/injection, schedule: Q01DX009 (ip), vehicle: saline with Tween-80): 0 of 6 and 1 of 6 | survivor count (dose: 50.0 mg/kg/injection, schedule: Q01DX009 (ip), vehicle: saline with Tween-80): 0 of 6 | survivor count (dose: 100.0 mg/kg/injection, schedule: Q01DX009 (ip), vehicle: saline with Tween-80): 0 of 6

CCCCCCCCCCCCCCCCCC[N+]1(CC)CCOCC1
T/C [12]: 87 [5 of 6 alive], 89, 138 % of control | survivor count [12]: 6 of 6 | survivor count [8]: 6 of 6 | survivor count [11]: 1 of 6 | survivor count [9]: 0 of 6 | survivor count [10]: 0 of 6

CC1=CC(=O)C=CC1(C)C(Cl)(Cl)Cl (stereo not drawn)
survivor count (dose: 400.0 mg/kg/injection, schedule: Q01DX009 (ip), vehicle: saline with Tween-80): 4 of 6

CC12CCC(N3CCCC3)CC1=CCC1C2CCC2(C)C1CCCN2CCO (stereo not drawn)
survivor count (dose: 100.0 mg/kg/injection, schedule: Q01DX001 (ip), vehicle: Klucel (hydroxypropylcellulose) (HPC)): 3 of 5 | survivor count (dose: 200.0 mg/kg/injection, schedule: Q01DX001 (ip), vehicle: Klucel (hydroxypropylcellulose) (HPC)): 0 of 5 | survivor count (dose: 400.0 mg/kg/injection, schedule: Q01DX001 (ip), vehicle: Klucel (hydroxypropylcellulose) (HPC)): 0 of 5

O=C1C2CC(CN3CCCCC23)C2CCCCN12 (stereo not drawn)
survivor count (dose: 300.0 mg/kg/injection, schedule: Q01DX009 (ip), vehicle: saline): 2 of 6

COc1cccc(CN2CCNCC2)c1
survivor count [1]: 5 of 6

C/C(=N\N=Nc1ccc(N(C)C)cc1)c1ccccc1
survivor count (dose: 240.0 mg/kg/injection, schedule: Q01DX005 (ip), vehicle: Klucel + Tween-80): 2 of 6
